The test deals with T1, menin expressed in and purified from E. coli (Homo sapiens (Human)) (UniProt O00255).
T1 sequence: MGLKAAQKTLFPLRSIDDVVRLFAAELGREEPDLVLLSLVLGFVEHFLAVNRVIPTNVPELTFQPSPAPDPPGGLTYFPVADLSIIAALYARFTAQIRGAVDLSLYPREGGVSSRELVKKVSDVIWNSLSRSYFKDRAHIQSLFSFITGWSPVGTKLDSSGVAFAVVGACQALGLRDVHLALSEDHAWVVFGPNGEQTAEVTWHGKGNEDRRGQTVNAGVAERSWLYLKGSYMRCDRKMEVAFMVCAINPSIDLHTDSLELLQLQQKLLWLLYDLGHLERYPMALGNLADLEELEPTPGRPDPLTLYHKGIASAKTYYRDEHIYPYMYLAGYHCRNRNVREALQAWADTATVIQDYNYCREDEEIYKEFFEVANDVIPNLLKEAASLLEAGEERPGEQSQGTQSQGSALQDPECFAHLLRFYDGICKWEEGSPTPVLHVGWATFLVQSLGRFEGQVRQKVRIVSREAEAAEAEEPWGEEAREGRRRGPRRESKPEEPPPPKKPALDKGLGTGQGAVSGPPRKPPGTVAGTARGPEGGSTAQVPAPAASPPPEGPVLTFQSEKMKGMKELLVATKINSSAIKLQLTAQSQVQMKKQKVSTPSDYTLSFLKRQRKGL
Kind of test: pull-down on streptavidin-agarose beads loaded with biotinylated peptide, anti-menin Western blot. For orientation: A western blot detects proteins with antibodies after separation by electrophoresis.

These are yes or no findings as the source states them, for the method shown. In cells and extracts the contact can be indirect. Some binding calls cover weakened binding; strength is not graded here.

B1: biotinylated synthetic peptide comprising … (SEQ ID No. 6) (peptide)
peptide: MAHSCRWRFP
modifications: biotinylated (position not given)
As to B1, the binding entry is reported as “binds”.

B2: biotinylated synthetic peptide … (SEQ ID No. 7) (peptide)
peptide: MAHSCRWRFPGSGSCRWRFP
modifications: biotinylated (position not given)
For B2, the binding result is reported as “binds”.

(Values after patent publication US20090181917A1.)
